From PubChem BioAssay AID540256 (National Center for Advancing Translational Sciences (NCATS), 2011)
Out of some 300,000 compounds screened, about 3,700 (1.2%) were called active. Inconclusive means that the source gave no clear call. Such entries were picked first, then a sample of the others. Calls come from the whole dose curve; tested in HEK293 cells. Potencies of inconclusive entries are doubtful fits and often do not repeat.

Assay: qHTS for Inhibitors of binding or entry into cells for Lassa Virus; note: nearly all actives have a fitted effect of over 50% in size
Conditions: Lassa virus pseudotype entry inhibition, cell reporter; activity change, negative = inhibition: at 37.9 µM (top of the series) unless noted
% is set by controls: 0 for no effect and ±100 for the full control effect; potency is the fitted concentration of half-maximal effect.

| Compound | Potency | activity change, negative = inhibition |
| --- | --- | --- |
| CNC(=S)N1N=C(c2ccccc2)CC1c1ccccc1Cl (configuration not stated) | inconclusive: 1 µM [inhibitor, full curve, poor fit] |  |
| CC(=O)N1c2ccc(S(=O)(=O)N3CCC(C(=O)N4CCN(c5ccccc5F)CC4)CC3)cc2CC1C (configuration not stated) | inconclusive: 7.08 µM [inhibitor, partial curve, poor fit] |  |
| Cc1cccc(N=C2NC(=O)/C(=C\c3cccs3)S2)c1 | inconclusive: 29.1 µM [inhibitor, single point] |  |
| O=C(Nc1cnn(Cc2ccc(Cl)cc2)c1)c1ccc([N+](=O)[O-])cc1 | inconclusive: 35.5 µM [inhibitor, single point] |  |
| CC(C)CC(COCc1cccc(C(F)(F)F)c1)N1CCN(C(=O)c2cccc(C(F)(F)F)c2)CCC1=O (configuration not stated) | inconclusive: 7.31 µM [inhibitor, partial curve] |  |
| O=C(Nc1ccc(Cl)cc1F)C1CCCN(C2=NS(=O)(=O)c3ccccc32)C1 (configuration not stated) |  | inactive: -7.97% |
| COc1ccc(Nc2nc3ccccc3s2)cc1 | inconclusive: 5.62 µM [activator, single point] |  |
| COc1ccc(C(=O)Nc2sc3c(c2C(=O)NCc2ccco2)CCCC3)cc1OC | inconclusive: 35.5 µM [inhibitor, single point] |  |
| Cc1cccc(N(CC(=O)Nc2ccccc2F)S(C)(=O)=O)c1 |  | inactive: 5.01% |
| Cc1ccc(CCNS(=O)(=O)c2c(C)nc3sc(C)c(C)n3c2=O)cc1 |  | inactive: 27% [at 46.1 µM] |
| CN(C)c1oc(-c2ccccc2)nc1C#N |  | inactive: 8.78% |
| COc1ccc(NC(=O)c2cc(-c3ccco3)on2)cc1 | inconclusive: 1 µM [inhibitor, full curve, poor fit] |  |
| CCCNC(=O)CN1CCN(c2cc3ccccc3c(Cl)n2)CC1 |  | inactive: -17% [at 46.1 µM] |
| Cc1cc(C)cc(-n2c(SCC(=O)N3CCOCC3)nc3c([nH]c4ccccc43)c2=O)c1 | inconclusive: 1.12 µM [inhibitor, full curve, poor fit] |  |
| O=C(Nc1ccc(-n2nncc2-c2ccco2)cc1)c1cc2ccccc2oc1=O |  | inactive: -6.27% |
| CCn1c(/C=C/Nc2ccccc2)[n+](CC)c2cc(Cl)c(Cl)cc21 | inconclusive: 35.5 µM [inhibitor, single point] |  |
| CCC(C(=O)NC1CCCC1)N(Cc1ccco1)C(=O)Cn1nnc(-c2ccc(C)cc2)n1 (configuration not stated) |  | inactive: -8.11% |
| Cc1ccccc1OCC(=O)OCC(=O)c1ccc(OCc2ccccc2)cc1 | inconclusive: 6.51 µM [activator, single point] |  |
| Cc1cccc(NC(=O)c2ccc(S(=O)(=O)N(C)C)cc2)n1 | inconclusive: 12.6 µM [activator, partial curve, poor fit] |  |
| Cc1c(C#N)c2ncnc(-c3ccccc3)c2n1-c1ccccc1 |  | inactive: 1.49% |
| Cc1nc(-c2ccccc2)cc(-c2ccccc2)n1 |  | inactive: -2.96% |
| CCN(CC)CCOc1nnc(-c2ccc(C)cc2)c2ccccc12 |  | inactive: -17.3% |
| CCOc1ccc(NC(=O)c2ccc(-c3nc(COc4ccccc4)c(C)o3)cc2)cc1 | inconclusive: 14.1 µM [activator, single point] |  |
| Cc1csc(=Nc2c(C)n(C)n(-c3ccccc3)c2=O)n1Cc1ccccc1 | inactive |  |

One compound at a time, as listed above.
`O=C(Nc1ccc(-n2nncc2-c2ccco2)cc1)c1cc2ccccc2oc1=O` is listed as activity change, negative = inhibition: inactive: -6.27%
`Cc1cccc(NC(=O)c2ccc(S(=O)(=O)N(C)C)cc2)n1` is listed as Potency: inconclusive: 12.6 µM [activator, partial curve, poor fit]
`CCOc1ccc(NC(=O)c2ccc(-c3nc(COc4ccccc4)c(C)o3)cc2)cc1` is listed as Potency: inconclusive: 14.1 µM [activator, single point]
`Cc1nc(-c2ccccc2)cc(-c2ccccc2)n1` is listed as activity change, negative = inhibition: inactive: -2.96%

Looked up above.
Under Potency, Cc1cccc(NC(=O)c2ccc(S(=O)(=O)N(C)C)cc2)n1 has the entry inconclusive: 12.6 µM [activator, partial curve, poor fit]
Under Potency, CNC(=S)N1N=C(c2ccccc2)CC1c1ccccc1Cl (configuration not stated) has the entry inconclusive: 1 µM [inhibitor, full curve, poor fit]

(more compounds)

| Compound | Potency | activity change, negative = inhibition |
| --- | --- | --- |
| Cc1cc(C)nc(NS(=O)(=O)c2ccc(NS(=O)(=O)c3ccccc3)cc2)n1 |  | inactive: -0.821% |
| O=C(NCCN1CCN(C(=O)c2cccc(Br)c2)CC1)C(=O)Nc1ccc(Br)cc1 | inconclusive: 10 µM [inhibitor, partial curve, poor fit] |  |
| CCOc1ccc(C(C(=O)NCC2CCCO2)N(C(=O)c2snc(C(N)=O)c2N)c2ccc3c(c2)OCCO3)cc1 (configuration not stated) | inconclusive: 1 µM [inhibitor, full curve, poor fit] |  |
| CCN1CCN(CCNC(=O)CCCn2nc(C)c3c(C)n(-c4ccc(C)cc4)nc3c2=O)CC1 |  | inactive: 21% [at 46.1 µM] |
| COc1cccc(NC(=S)N2CCc3cc(OC)c(OC)cc3C2)c1 | inconclusive: 15.8 µM [inhibitor, partial curve, poor fit] |  |
| CCN(CCC(=O)Nc1cc(OC)cc(OC)c1)Cc1ccccc1 | inconclusive: 23.1 µM [inhibitor, partial curve, poor fit] |  |
| N#C/C(=C\c1ccc(Cl)cc1)c1nc2ccccc2[nH]1 |  | inactive: 17.6% [at 46.1 µM] |
| COc1ccc(C(C(=O)NC(C)(C)C)N(CCC(C)C)C(=O)CCC(=O)Nc2cc(C)on2)cc1 (configuration not stated) | inconclusive: 11.2 µM [inhibitor, partial curve, poor fit] |  |
| O=C1NC(c2cccc(OCc3ccccc3)c2)Nc2ccccc21 (configuration not stated) | inconclusive: 2 µM [inhibitor, full curve, poor fit] |  |
| CC1=CN2C(=N)/C(=C/c3ccc([N+](=O)[O-])o3)C(=O)N=C2S1 |  | inactive: -14.2% |
| COc1ccc(CCc2nnc(CCC(=O)N(C)Cc3ccnc4ccccc34)o2)cc1 | active: 12.6 µM |  |
| O=C(Cc1ccccc1)Nc1sc2c(c1C(=O)Nc1ccc(Cl)cc1)CCCC2 |  | inactive: 14.1% [at 46.1 µM] |
| NS(=O)(=O)c1cccc(Nc2cc(-c3ccc(F)cc3)[nH]n2)c1 | inconclusive: 0.0089 µM [activator, full curve, poor fit] |  |
| O=C(O)CCc1nc(-c2ccccc2)no1 |  | inactive: 3.52% |
| CCC(Sc1nnc(-c2ccc(C)c(Cl)c2)n1CC)C(=O)Nc1nccs1 (configuration not stated) | inconclusive: 29.1 µM [inhibitor, single point] |  |
| O=C(Nc1c[nH]c(=O)[nH]c1=O)c1cccc(F)c1 |  | inconclusive: 11.1% [activator] |
| Cc1cccc(NC(=O)/C=C/c2ccc3c(c2)OCO3)n1 | inconclusive: 14.6 µM [inhibitor, partial curve, poor fit] |  |
| Cc1cccc(NC(=S)NC2CCN(Cc3ccccc3)CC2)c1C |  | inactive: -22.9% |
| Cc1c(C(=O)O)cccc1-c1ccc(/C=N/n2cnnc2)o1 | inconclusive: 6.31 µM [activator, full curve, poor fit] |  |
| O=C(CC12CC3CC(CC(Br)(C3)C1)C2)NC1CCCC1 |  | inactive: 15.6% |
| O=C(NCCc1csc(-c2cccc(F)c2)n1)c1cccs1 |  | inactive: -12.3% [at 46.1 µM] |
| CCOC(=O)C1(Cc2cccc(OC)c2)CCCN(C(=O)c2ccccc2C)C1 (configuration not stated) |  | inactive: 15.8% |
| N=c1ccn(Cc2ccc(Cl)cc2Cl)cc1 | inconclusive: 22.4 µM [inhibitor, single point] |  |
| CCn1cc(/C=C/C(=O)c2ccc(O)cc2)c(C)n1 | inconclusive: 1.58 µM [activator, partial curve, poor fit] |  |

| Compound | Potency | activity change, negative = inhibition |
| --- | --- | --- |
| Cc1ccc(C(c2nnnn2C2CCCCC2)N2CCN3CCCC3C2)cc1 (configuration not stated) |  | inactive: -0.651% |
| CCOc1cc(NC(=O)C2CC2)c(OCC)cc1NC(=O)c1ccccc1OCC | inconclusive: 11.2 µM [inhibitor, partial curve, poor fit] |  |
| CC(C)C(NC(=O)CN(c1ccc2c(c1)OCCO2)S(=O)(=O)c1ccccc1)C(C)C |  | inactive: 20.5% [at 46.1 µM] |
| Oc1ccc(CN2CCCc3ccccc32)c2cccnc12 | active: 4.47 µM |  |
| CCc1ccc(-c2csc3ncn(CC(=O)NCc4ccco4)c(=O)c23)cc1 | inconclusive: 20 µM [inhibitor, partial curve, poor fit] |  |
| CCN(CC)c1ccc(NC(=O)COc2ccccc2C#N)cc1S(=O)(=O)Nc1ccc(OC)cc1 | inconclusive: 0.082 µM [inhibitor, full curve, poor fit] |  |
| CCC(=Cc1ccccc1O)c1ccncc1 |  | inactive: -24.2% [at 46.1 µM] |
| CCOc1ccc(CC2S/C(=N/N=C/c3ccco3)NC2=O)cc1 (configuration not stated) | inconclusive: 3.16 µM [inhibitor, full curve] |  |
| CN(C(=O)CCc1nnc(-c2ccc(-c3ccccc3)cc2)o1)C1CCOCC1 | inconclusive: 35.5 µM [inhibitor, single point] |  |
| Cc1cc(C)cc(OC(=O)c2snnc2C)c1 |  | inactive: 5.92% [at 46.1 µM] |
| COC(=O)C1=C(CSc2nc3ccccc3o2)NC(=O)NC1c1cc(C)ccc1C (configuration not stated) | inconclusive: 17.8 µM [inhibitor, partial curve] |  |
| Cc1cc(C)n2nc(C(=O)OCC(=O)N(C)C3CCCCC3)nc2n1 | inconclusive: 0.891 µM [activator, full curve] |  |
| CC(=O)c1c(C)[nH]c(C(=O)OCc2c(F)cccc2Cl)c1C | inconclusive: 7.94 µM [inhibitor, partial curve, poor fit] |  |
| C=CCN(CC=C)C(=S)Nc1ccccc1 | inconclusive: 20.6 µM [activator, partial curve, poor fit] |  |
| CCOc1ccccc1NC(=O)C1CCN(S(=O)(=O)c2ccccc2)CC1 | inconclusive: 15.8 µM [inhibitor, single point] |  |
| CCOC(=O)c1cnc2cc(-c3ccc(Cl)cc3)nn2c1N |  | inactive: 11% |
| CCOc1ccc(S(=O)(=O)N2CCN(c3c(C)cccc3C)CC2)c2ccccc12 | inconclusive: 5.62 µM [inhibitor, single point] |  |
| CN(C)/C=C1\Oc2ccc3ccccc3c2C1=O | inconclusive: 6.31 µM [activator, single point] |  |
| COc1ccc(-c2nc(SCC(=O)Nc3ccc4c(c3)OCO4)c(-c3ccc(OC)cc3)[nH]2)cc1 |  | inactive: 0.204% [at 46.1 µM] |
| Fc1ccc(-c2nnc3sc(C4COc5ccccc5O4)nn23)cc1 (configuration not stated) | inconclusive: 29.1 µM [inhibitor, single point] |  |
| Cc1csc(NC(=O)CSc2ccc(-c3ccccc3)nn2)n1 |  | inconclusive: 10.1% [activator] |
| COC1CCC(OC2CC(C3(C)CCC4(CC(O)C(C)C(C(C)/C=C(\C)C(=O)C(C)CC(C)C(=O)O)O4)O3)OC3(OC(C4OC(O)(CO)C(C)CC4C)CC3C)C2C)OC1C (configuration not stated) | active: 0.316 µM |  |
| COc1ccc(NCc2cc3cc4c(cc3n(CC(=O)Nc3ccc(C)cc3)c2=O)OCO4)cc1 |  | inactive: -25.9% [at 46.1 µM] |
| CC(=O)Cc1nsc(NC(=O)c2ccc(-c3cc(C(F)(F)F)ccc3Cl)o2)n1 | inconclusive: 29.1 µM [inhibitor, single point] |  |
